In PubChem BioAssay AID540276 (National Center for Advancing Translational Sciences (NCATS), 2011):
Among all 300,000 compounds or so, about 5,400 (1.8%) were called active. The inconclusive results got no clear call from the source; some entries with a clear call stand among them for comparison. Calls follow the shape of the full dose curve; tested in HEK293 cells. Potencies of inconclusive entries are doubtful fits and often do not repeat.

Assay: qHTS for inhibitors of binding or entry into cells for Marburg Virus
Conditions: Marburg virus pseudotyped entry inhibition, cell reporter; activity change, negative = inhibition: at 37.8 µM (top of the series) unless noted
% is scaled to controls: 0 for no effect and ±100 for the full control effect; potency is read from the fitted curve at half-maximal effect.

Question: With `Cc1ccc(-c2nnc(SCC(=O)Nc3nccs3)n2N)cc1` as the compound, how does the “activity change, negative = inhibition” value read?
Answer: inactive: 4.35%

Question: With `CC(C)c1ccc(NC(=O)N2CCN(c3ccc(Cl)c(Cl)c3)CC2)cc1` as the compound, how does the Potency read?
Answer: inconclusive: 35.5 µM [inhibitor, single point]

Question: With `COc1ccc(OC)c(NC(=O)CN(c2ccc(C)cc2)S(=O)(=O)c2c(C)n[nH]c2C)c1` as the compound, how does the Potency read?
Answer: inconclusive: 3.16 µM [inhibitor, partial curve, poor fit]

Question: Which Potency does the source give for `CCCCOC(=O)CSC1=C(C#N)C(c2ccccc2OCC)C(C#N)C(=O)N1` (centres undefined) here?
Answer: inconclusive: 29.1 µM [inhibitor, single point]

Question: With `Cc1cc(/C=N/NC(N)=S)c(C)n1-c1ccc(Cl)cc1` as the compound, how does the Potency read?
Answer: inconclusive: 7.3 µM [inhibitor, partial curve]

Question: For `NC(=O)c1c(NC(=O)C2CCCO2)sc2c1CCCCC2` (centres undefined), which Potency is on record?
Answer: inconclusive: 0.794 µM [activator, single point]

Question: Which Potency does the source give for `COc1ccc2ccccc2c1/C=N/O` here?
Answer: inconclusive: 0.184 µM [activator, full curve]

Question: Which Potency does the source give for `Cn1cc(CN2CCc3c([nH]c4ccccc34)C2C(C)(C)C)cn1` (centres undefined) here?
Answer: inconclusive: 8.91 µM [inhibitor, partial curve, poor fit]

Question: Which “activity change, negative = inhibition” value does the source give for `Cn1c(C(=O)Nc2ccc3c(c2)OCO3)cc2sccc21` here?
Answer: inactive: -0.442%

Question: With `Cc1onc(-c2c(F)cccc2Cl)c1C(=O)Nc1cccc(S(=O)(=O)N2CCOCC2)c1` as the compound, how does the Potency read?
Answer: inconclusive: 25.1 µM [inhibitor, single point]

Question: With `COC(=O)c1cc2c(ccn2-c2ccc(F)cc2)n1C(C)C` as the compound, how does the “activity change, negative = inhibition” value read?
Answer: inactive: 11.4%

Question: With `C/C(=N\NC(=S)NC1CCCCC1)c1cccc(Br)c1` as the compound, how does the “activity change, negative = inhibition” value read?
Answer: inactive: -1.65%

Question: For `O=C(COc1cccc(Cl)c1)N1CCC(c2nc3ccccc3o2)CC1`, which “activity change, negative = inhibition” value is on record?
Answer: inactive: 2.49% [at 46.1 µM]

Question: Which Potency does the source give for `CC(C)=CCN1CCN(Cc2cccc3nonc23)CC1CCO` (centres undefined) here?
Answer: inconclusive: 35.5 µM [inhibitor, single point]

Question: For `Cc1ccc([N+](=O)[O-])cc1S(=O)(=O)N1CCN(C)CC1`, which “activity change, negative = inhibition” value is on record?
Answer: inactive: -0.517% [at 46.1 µM]

Question: With `O=C(Nc1ccc(Cl)cc1C(=O)O)c1ccc2c(c1)C(=O)N(Cc1ccco1)C2=O` as the compound, how does the Potency read?
Answer: inactive

Question: For `CN1C(=O)N(c2ccc(Cl)cc2)C(C)(O)CC1(C)C` (centres undefined), which Potency is on record?
Answer: inconclusive: 3.98 µM [inhibitor, full curve, poor fit]

Question: With `Cc1cccc(OCC(=O)NN2C(=O)C3C4C=CC(O4)C3C2=O)c1` (centres undefined) as the compound, how does the Potency read?
Answer: inconclusive: 11.2 µM [activator, partial curve, poor fit]

Question: Which Potency does the source give for `COc1ccc2c(c1)c(CC(=O)Nc1cc(C)ccc1C)c(C)n2C(=O)c1ccc(Cl)cc1` here?
Answer: inconclusive: 7.08 µM [inhibitor, full curve, poor fit]

Question: For `CCCCN(c1ccccc1)c1ncnc(N)c1[N+](=O)[O-]`, which “activity change, negative = inhibition” value is on record?
Answer: inactive: -13.9%

Question: For `COCCn1c(SCC(=O)Nc2ncc(Cl)c(C)c2Cl)nc2ccccc21`, which Potency is on record?
Answer: inconclusive: 14.6 µM [inhibitor, partial curve, poor fit]

Question: For `Cc1ccc(/C=C/C(=O)c2c(C)cc(C)[nH]c2=O)cc1`, which Potency is on record?
Answer: active: 23.1 µM

Question: For `CCN1C(=NCc2cccc(C(F)(F)F)c2)NC(c2cccc(F)c2)C(C(=O)OC)=C1C` (centres undefined), which Potency is on record?
Answer: inconclusive: 0.188 µM [activator, full curve, poor fit]

Question: For `CCCOC(=O)c1ccc(Oc2c(-c3ccc(OCC)cc3O)n[nH]c2C)cc1`, which Potency is on record?
Answer: inconclusive: 16.4 µM [inhibitor, single point]

Question: For `COc1cccc(/C=N/n2c(SC)nnc2-c2ccccc2)c1O`, which Potency is on record?
Answer: inconclusive: 11.2 µM [inhibitor, partial curve, poor fit]

Question: Which Potency does the source give for `Cc1ccc(NC(=O)CC(C(=O)O)c2ccccc2)cc1` (centres undefined) here?
Answer: inconclusive: 0.316 µM [activator, partial curve, poor fit]

Question: Which “activity change, negative = inhibition” value does the source give for `CC(Sc1nc2ccccc2s1)C(=O)NCc1ccc2c(c1)OCO2` (centres undefined) here?
Answer: inactive: 17.8%

Question: For `Nc1ccccc1Sc1ccc(C(F)(F)F)cc1[N+](=O)[O-]`, which Potency is on record?
Answer: inconclusive: 8.91 µM [inhibitor, partial curve, poor fit]

Question: For `COc1ccc(/C=N/NC(=O)c2cccnc2)cc1CN1CCc2ccccc2C1`, which Potency is on record?
Answer: inconclusive: 14.1 µM [inhibitor, single point]

Question: For `C=CCOc1cccc(C(=O)N2CCCC(CCC(=O)NCc3ccccc3F)C2)c1` (centres undefined), which Potency is on record?
Answer: inconclusive: 35.5 µM [inhibitor, single point]

Question: With `O=C(Nc1ccc(Cl)c(S(=O)(=O)N2CCOCC2)c1)c1cn2ccccc2n1` as the compound, how does the “activity change, negative = inhibition” value read?
Answer: inactive: 30.8% [at 46.1 µM]

Question: With `O=C(Nc1ccccc1F)C(=Cc1sc(N2CCOCC2)nc1-c1ccccc1)C(=O)Nc1ccccc1F` as the compound, how does the “activity change, negative = inhibition” value read?
Answer: inactive: -4.93% [at 46.1 µM]

Question: With `CCOC(=O)C1C(=O)NC(N2CCc3ccccc32)=NC1c1ccccc1` (centres undefined) as the compound, how does the Potency read?
Answer: inconclusive: 1 µM [activator, partial curve, poor fit]

Question: For `Cc1ccc(/C=C/C(=O)OC(C)C(=O)Nc2ncc(Cl)cc2Cl)o1` (centres undefined), which “activity change, negative = inhibition” value is on record?
Answer: inactive: -3.89%

Question: For `CCOC(=O)c1cc2c(=O)n3ccccc3nc2n(CCOC)c1=NC(=O)c1cc2ccccc2o1`, which Potency is on record?
Answer: inconclusive: 35.5 µM [activator, single point]

Question: For `Cc1ccc(C2C(C(=O)c3cccs3)=C(O)C(=O)N2c2cccc(C)n2)cc1` (centres undefined), which Potency is on record?
Answer: inconclusive: 1.41 µM [activator, partial curve, poor fit]

Question: For `Cc1cccc(N/C(N)=N/c2nc3c(c(=O)[nH]2)CCCC3)c1`, which “activity change, negative = inhibition” value is on record?
Answer: inactive: -45.3%

Question: With `COc1ccc(CN(C)C(=O)CNC(=O)CNC(=O)c2ccc(Cl)cc2Cl)cc1F` as the compound, how does the Potency read?
Answer: inconclusive: 20 µM [inhibitor, partial curve, poor fit]

Question: With `O=C(C1=NN[C@@H]2C(=O)N(Cc3ccccc3)C(=O)[C@H]12)c1ccc([N+](=O)[O-])cc1` as the compound, how does the “activity change, negative = inhibition” value read?
Answer: inactive: -13.5% [at 46.1 µM]

Question: Which Potency does the source give for `CC(C)(C)C1CCc2c(sc(NC(=O)c3ccccc3F)c2C(=O)NCc2ccco2)C1` (centres undefined) here?
Answer: inconclusive: 12.6 µM [inhibitor, single point]

Question: With `Cc1cc(C)cc(C(=O)Nc2cccc(-c3nc4ncccc4o3)c2C)c1` as the compound, how does the Potency read?
Answer: inconclusive: 25.1 µM [inhibitor, single point]

Question: With `Cc1ccccc1CC(=O)N1CCCC(CCC(=O)N2CCN(c3ccccn3)CC2)C1` (centres undefined) as the compound, how does the Potency read?
Answer: inconclusive: 7.08 µM [inhibitor, partial curve]

Question: Which Potency does the source give for `O=C(NCCn1cc(SCc2ccccc2)c2ccccc21)c1cccs1` here?
Answer: inconclusive: 22.4 µM [inhibitor, partial curve, poor fit]

Question: Which “activity change, negative = inhibition” value does the source give for `CCCc1cc(=O)[nH]c(Nc2ccccc2O)n1` here?
Answer: inactive: -7.31% [at 46.1 µM]

Question: Which Potency does the source give for `CCCN(CC(=O)Nc1ccccc1OC)C(=O)c1cc(-c2cccs2)nn1-c1ccccc1` here?
Answer: inconclusive: 35.5 µM [inhibitor, single point]

Question: For `NS(=O)(=O)c1ccc(CCNCc2cc(Br)ccc2OCc2ccccc2)cc1`, which Potency is on record?
Answer: inconclusive: 1.12 µM [inhibitor, partial curve, poor fit]

Question: Which “activity change, negative = inhibition” value does the source give for `COc1ccc(C(=O)CC(=O)C(=O)Nc2ccc(Cl)cc2)cc1` here?
Answer: inactive: -22.8% [at 46.1 µM]

Question: For `Cc1ccccc1S(=O)(=O)Cc1ccc(C(=O)NCc2cccnc2)o1`, which Potency is on record?
Answer: inconclusive: 0.259 µM [inhibitor, single point]

Question: With `Cn1nnnc1Sc1ccc([N+](=O)[O-])cc1Cl` as the compound, how does the Potency read?
Answer: inconclusive: 35.5 µM [inhibitor, single point]

Question: Which Potency does the source give for `COc1ccc(/C(C)=N/NC(=O)CNC(=O)C(c2ccccc2)c2ccccc2)c(OC)c1` here?
Answer: inconclusive: 22.4 µM [inhibitor, partial curve, poor fit]

Question: For `Cc1ccc(C)c(NC(=S)NNC(=O)c2csc(C)c2C)c1`, which Potency is on record?
Answer: inconclusive: 0.282 µM [activator, partial curve, poor fit]

Question: With `Cc1ccc(O)c(NC(=S)NC(=O)CC(C)C)c1` as the compound, how does the “activity change, negative = inhibition” value read?
Answer: inactive: 3.49%

Question: Which Potency does the source give for `O=C(NC1CCCCC1)C(c1ccc2ncccc2c1)N(Cc1ccc(F)cc1)C(=O)c1ccc2c(c1)OCCO2` (centres undefined) here?
Answer: inconclusive: 11.6 µM [inhibitor, partial curve]

Question: With `CCCCC(=O)OCC(=O)c1ccc(OCC)cc1` as the compound, how does the “activity change, negative = inhibition” value read?
Answer: inactive: 23.8%

Question: With `CCNc1nc(NC(C)(C)C)nc(Oc2ccc(=O)n(-c3ccccc3)n2)n1` as the compound, how does the Potency read?
Answer: inconclusive: 7.08 µM [activator, partial curve, poor fit]

Question: Which “activity change, negative = inhibition” value does the source give for `C[C@H](NC(=O)Nc1ccccc1F)C(=O)O` here?
Answer: inactive: 13.1%

Question: For `CCc1ccccc1N1CC(c2nc3ccccc3n2CCOc2ccc(Cl)c(C)c2)CC1=O` (centres undefined), which Potency is on record?
Answer: inconclusive: 35.5 µM [inhibitor, single point]

Question: With `COc1ccc(Cl)cc1N=C1NC(=O)CC(C(=O)Nc2ccccc2C(F)(F)F)S1` (centres undefined) as the compound, how does the Potency read?
Answer: inconclusive: 15.8 µM [inhibitor, partial curve, poor fit]

Question: With `COC(=O)c1ccc(OC)c(CSc2nnc(COc3ccc(Cl)cc3)o2)c1` as the compound, how does the Potency read?
Answer: inconclusive: 29.1 µM [inhibitor, single point]

Question: For `CCCCN(CC)C(=O)Cn1c(=O)sc2ccccc21`, which Potency is on record?
Answer: inconclusive: 32.6 µM [activator, partial curve, poor fit]

Question: With `CCn1c(C(=O)N2CCC(C(=O)N3CCN(c4ccc(OC)cc4)CC3)CC2)cc2sccc21` as the compound, how does the “activity change, negative = inhibition” value read?
Answer: inactive: 4.77% [at 46.1 µM]

Question: Which “activity change, negative = inhibition” value does the source give for `N#CCCn1cc(C(CC(=O)c2ccccc2)C(=O)O)c2ccccc21` (centres undefined) here?
Answer: inactive: -2.96% [at 46.1 µM]

Question: For `COc1ccc(/C=C(/NC(=O)c2ccco2)C(=O)Nc2ccc(C(=O)O)cc2)cc1`, which “activity change, negative = inhibition” value is on record?
Answer: inactive: -2.27% [at 46.1 µM]

Question: With `CCSc1nc2sc3c(c2c(=O)[nH]1)CC(C)(CC)OC3` (centres undefined) as the compound, how does the “activity change, negative = inhibition” value read?
Answer: inactive: -0.391%

Question: For `COc1c(F)c(F)c(C(=O)Nc2ccccc2N2CCN(C(=O)C(C)C)CC2)c(F)c1F`, which Potency is on record?
Answer: inactive

Question: Which Potency does the source give for `O=C(NCCCN1CCOCC1)c1cc(-c2ccc(Br)cc2)on1` here?
Answer: inconclusive: 29.1 µM [inhibitor, single point]

Question: Which Potency does the source give for `c1ccc2cc(-c3cc4ccccn4c3)ccc2c1` here?
Answer: inconclusive: 1.64 µM [activator, partial curve]

Question: With `CCOC(=O)N1CCN(S(=O)(=O)N2CCCC(C(=O)NCc3ccc(OC)cc3)C2)CC1` (centres undefined) as the compound, how does the “activity change, negative = inhibition” value read?
Answer: inactive: 0.633% [at 46.1 µM]

Question: With `COc1ccc(-n2c(C)c(C(C)=O)c3cc(OCC(N)=O)ccc32)cc1` as the compound, how does the Potency read?
Answer: inconclusive: 35.5 µM [activator, partial curve, poor fit]
